# Where a name gives a salt, the structure may show the parent alone. At least one structure is not confirmed: it was looked up by name or label, or the drawing left a doubt.
# Test: Gravimetric Vapor Sorption (GVS)
# Assay type: physicochemical
# Experimental: Sorption isotherms were obtained using a SMS DVS Intrinsic moisture sorption analyzer, controlled by DVS Intrinsic Control software v1.0.1.2 (or v 1.0.1.3). The sample temperature was maintained at about 25° C. by the instrument controls. The humidity was controlled by mixing streams of dry and wet nitrogen, with a total flow rate of about 200 mL/min. The relative humidity was measured by a calibrated Rotronic probe (dynamic range of about 1.0-100% RH), located near the sample. The weight change, (mass relaxation) of the sample as a function of % RH was constantly monitored by the microbalance (accuracy ±0.005 mg). Typically, about 18-20 mg of sample was placed in a tared mesh stainless steel basket under ambient conditions. The sample was loaded and unloaded at about 40% RH and about 25° C. (typical room conditions). A moisture sorption isotherm was performed as outlined in Table 1 (2 scans giving 1 complete cycle). The standard isotherm was performed at about 25° C. at about 10% RH intervals over a 0-90% RH range. Data analysis was carried out using Microsoft Excel using DVS Analysis Suite v6.2 (or 6.1 or 6.0). The sample was recovered after completion of the isotherm and re-analysed by XRPD.
smiles,measurement,setting,value
CC[C@H]1[C@@H](O)[C@@H]2[C@H](CC[C@]3(C)[C@@H]([C@H](C)CCC(=O)O)CC[C@@H]23)[C@@]2(C)CC[C@@H](O)C[C@@H]12 [obeticholic acid monoammonium salt],Hygroscopicity by GVS,0-90% RH range,slightly hygroscopic
same,GVS water uptake,"0-90% RH range, about 25° C.",approximately 1.5%
same,XRPD post GVS (form recovered after the experiment),after GVS cycle 0-90% RH,unchanged
